# Library screening results

By UniProt entry, the sequences of proteins in these tests, tags left out.
UniProt E9BF75, entry or part of it: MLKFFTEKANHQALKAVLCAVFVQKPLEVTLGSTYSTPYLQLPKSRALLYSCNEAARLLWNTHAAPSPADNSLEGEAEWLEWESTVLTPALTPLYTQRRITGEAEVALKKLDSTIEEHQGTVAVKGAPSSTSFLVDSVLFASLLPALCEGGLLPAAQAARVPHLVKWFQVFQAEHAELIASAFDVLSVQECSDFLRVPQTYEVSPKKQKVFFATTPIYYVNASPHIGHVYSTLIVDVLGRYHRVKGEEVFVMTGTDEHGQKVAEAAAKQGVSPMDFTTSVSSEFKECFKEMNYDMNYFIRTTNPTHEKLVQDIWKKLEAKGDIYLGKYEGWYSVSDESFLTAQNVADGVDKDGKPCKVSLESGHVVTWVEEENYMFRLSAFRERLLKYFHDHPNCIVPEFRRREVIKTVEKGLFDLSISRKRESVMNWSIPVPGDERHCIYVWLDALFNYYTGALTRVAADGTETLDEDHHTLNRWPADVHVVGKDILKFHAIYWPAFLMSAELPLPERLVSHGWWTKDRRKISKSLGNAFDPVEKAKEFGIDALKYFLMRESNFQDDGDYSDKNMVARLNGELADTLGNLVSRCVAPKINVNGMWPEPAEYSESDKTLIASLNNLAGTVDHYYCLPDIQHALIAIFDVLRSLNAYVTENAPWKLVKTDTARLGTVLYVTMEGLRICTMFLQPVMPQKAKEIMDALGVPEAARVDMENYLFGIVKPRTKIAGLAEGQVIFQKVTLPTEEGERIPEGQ

From ChEMBL document CHEMBL3988442, “University of Dundee, Small-Polar-MMV Screening Library” (2021).

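Primary screen of methionyl-tRNA synthetase; the read-out is not stated. Target: Methionyl-tRNA synthetase (putative), Leishmania donovani (UniProt E9BF75). The test concentration is not given. Values are per cent inhibition. Size under these conditions: about 68,000 compounds, about 24 of them at 50% or above in at least one test.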

All values are in %. The controls that fix the scale are not given in the record; negative values are as filed. This is an unselected part of the compounds tested.

* CCN(CC(=O)NC)S(=O)(=O)N1CCCCCC1 : 9.294%
* Cc1n[nH]c(CCC(=O)N2CCOC(Cc3ccc(F)cc3)C2)c1C (centres undefined) : -1.72%
* Cc1nccn1C1CCCN(C(=O)c2cnn(C)c2C2CC2)C1 (centres undefined) : -9.934%
* CC1CCN(C(=O)Cn2cc(I)cn2)CC1 : 9.253%
* COCC(=O)N1CCC2(CC1)CC(COC)N(c1ncccn1)C2 (centres undefined) : 12.59%
* Cc1cc(NC2CCCN(Cc3ccc(F)cc3)C2)n2nc(C)cc2n1 (centres undefined) : 18.01%
* CC(C(=O)NCc1ccc(-n2cncn2)nc1)S(C)(=O)=O (centres undefined) : 1.031%
* N#Cc1ccccc1CN1CCCC(c2nccn2CC2CCC2)C1 (centres undefined) : 11.38%
* CC(C)(CN1CCCC1)CN1CCC(Cn2cc(CCO)nn2)CC1 : -1.005%
* NC(=O)COc1ccc(CN2CCC(O)(CN3CCCCC3)C2)cc1Cl (centres undefined) : 16.03%
* CC(=O)N1CCN(C(=O)Nc2ccc(Cl)cc2)[C@H]2CS(=O)(=O)C[C@H]21 : 9.779%
* O=C(CCc1ccsc1)Nc1cccnc1N1CCCC1 : 16%
* COc1c(F)cc(NC(=O)N2CCC(CSC)C2)cc1F (centres undefined) : 8.761%
* FC(F)(F)c1cccc(OC2CCN(Cc3ccccn3)CC2)c1 : 11.92%
* Cn1c(=O)oc2cc(S(=O)(=O)N3CCCCC3)c(Cl)cc21 : 6.077%
* CCOc1ccnc(NCc2nc(C)cc(=O)[nH]2)n1 : 0.2688%
* O=C1N(c2cccnc2)CCC12CCCN(Cc1cccnc1)C2 (centres undefined) : 12.59%
* O=C(c1ccncc1)N1CCC(Cc2cnc3[nH]ccc3c2)CC1 : 6.78%
* N#Cc1cccc(OCc2ccoc2C(=O)N2CCCCCC2)c1 : -2.73%
* O=C(CCC(F)(F)F)N1CCCC(c2ncc[nH]2)C1 (centres undefined) : 10.36%
* CO[C@@H]1CCN(c2ncc(F)cn2)[C@@H]2CN(CC3CC3)C[C@@H]21 : 8.651%
* Cc1nc(C2CN(Cc3ccccc3C)CCO2)no1 (centres undefined) : 7.107%
* O=S(=O)(C1CC1)N1CCn2c(Cn3cncn3)cnc2C1 : 13.59%
* CN(Cc1ccc(Br)o1)C(=O)Nc1cccnc1 : 8.571%
* CC(C)(C)c1noc(-c2nc3c([nH]2)CCCNC3=O)n1 : 11.81%
* CC(=O)N1CCCc2sc(C(=O)NC3CC3)nc21 : 16.44%
* CCN(CC)C(=O)c1ccc(-c2ccsc2)nc1C : 12.39%
* OC(CN1CCN(CC2CC2)CC1)c1ccc(Br)cc1 (centres undefined) : 11.08%
* COC(=O)CCNC(=O)c1ccoc1CN1c2ccccc2CC1C (centres undefined) : 23.5%
* O=C(NCCNc1ccccn1)N1CCC(O)CC1 : 7.302%
* N#Cc1cn(C2CC2)c(=O)n(Cc2noc(-c3cccs3)n2)c1=O : 5.966%
* CSCC(C)CNC(=O)N1CCSC(C)(C)C1 (centres undefined) : 11.33%
* Cc1noc(C)c1CCC(=O)N1CCCC(n2ccnc2C)C1 (centres undefined) : 10.99%
* CCS(=O)(=O)N1CCCC(c2nccn2Cc2cccnc2)C1 (centres undefined) : -2.857%

Once more, the final 3:

* CSCC(C)CNC(=O)N1CCSC(C)(C)C1 (centres undefined) | 11.33%
* Cc1noc(C)c1CCC(=O)N1CCCC(n2ccnc2C)C1 (centres undefined) | 10.99%
* CCS(=O)(=O)N1CCCC(c2nccn2Cc2cccnc2)C1 (centres undefined) | -2.857%